Measurements reported in PubChem BioAssay AID1259290 (Sanger Institute, 2017).
The deposit covers 794 reagents; below is an unselected part. In the full data, 9 (1.1%) got an active call. 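Calls rest on knock-down alone, not drug synergy; synergy above 0.15 was grouped apart and does not affect calls.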 A number with no mark means an inactive call. Viability is capped at 1. Not stated in the record: the amount of reagent, the time to read-out.

Aim: 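siRNA screen across the kinome seeking synthetic lethal partners for BYL719, cetuximab or trametinib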 (primary screen)
Cell system: human SNUC1 colorectal cancer cells
Reagent: siRNA pool against human genes
Challenge: anchor drugs BYL719 1 µM, cetuximab 5 µg/ml or trametinib 10 nM, or DMSO vehicle alone
Measurement: 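Cell viability relative to a non-targeting siRNA control, replicate-averaged, as robust z-score for knock-down alone, plus a synergy score for each anchor drug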
Direction: viability z-score, siRNA alone: higher = more viable cells; low values mean essential gene; viability vs control, siRNA alone: higher = more viable cells; synergy score with BYL719 and synergy score with Cetuximab and synergy score with Trametinib: higher = stronger synthetic lethal effect with drug
Active means: 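Essential when the robust viability z-score with siRNA alone falls below -3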
Meaning of the calls: active = essential: knock-down alone cut viability (z below -3); inactive = no clear viability loss with knock-down alone

Gene	PubChem SID	viability z-score, siRNA alone	viability vs control, siRNA alone	synergy score with BYL719	synergy score with Cetuximab	synergy score with Trametinib
MAPK8	SID135620691	-0.0573	0.911	-0.177	-0.102	-0.139
MAP4K3	SID135620707	-0.0772	0.909	0.014	-0.0503	0.086
TCF7L2	SID251759863	0.936	1	-0.198	-0.0447	-0.137
CDK3	SID56478597	0.587	0.968	-0.223	-0.0748	0.044
CSNK1A1L	SID135620867	0.936	1	-0.198	-0.0447	-0.343
MAP3K13	SID56478694	-0.606	0.861	-0.31	-0.0862	-0.13
PIP4K2C	SID56478804	-0.132	0.904	-0.147	-0.0579	-0.00534
PDK1	SID56478951	0.936	1	-0.0772	-0.0368	0.143
TNK1	SID152152407	0.57	0.967	-0.0447	0.0108	-0.0913
TPD52L3	SID56479192	0.936	1	-0.198	-0.0447	-0.132
NME1	SID56479166	0.936	1	-0.198	-0.0447	-0.0763
DSTYK	SID152147164	0.936	1	-0.162	-0.0447	-0.0306
SHPK	SID135621260	0.183	0.932	-0.0535	-0.0557	-0.00161
STK40	SID56479025	0.478	0.959	-0.0735	-0.0134	-0.0236
BUB1	SID152152440	0.93	0.999	-0.0364	0.00138	-0.0121
CTCF	SID135623925	0.551	0.965	-0.0456	0.0577	0.0575
FBXW7	SID152153107	0.85	0.992	-0.0725	-0.0522	0.0914
UCKL1	SID152149527	0.936	1	-0.156	0.0239	-0.0243
CIB2	SID134316517	-0.555	0.866	-0.306	-0.0166	-0.119
RELA	SID135620694	-0.724	0.85	-0.0213	0.103	0.0118
